Experimental findings from patent US20260022246A1, “COLORING AGENT COMPOSITION, FILM, OPTICAL FILTER, AND NEAR INFRARED ABSORBING COMPOUND” (FUJIFILM Corporation, priority 2023, published 2026) are described below.

Structures are written as SMILES.

A short description of the data set: Evaluation of kneading: transmittance at 1,150 nm of melt-kneaded resin film. The conditions noted are these: film 0.15 mm; for Evaluation of transmittance at wavelength of 1150 nm, Acrylic: acrylic resin 12.0 g, melt-kneading 180° C., hot press 160° C.; for Evaluation of transmittance at wavelength of 1150 nm, Polycarbonate: polycarbonate resin 12.0 g, melt-kneading 260° C., hot press 230° C.; for Evaluation of transmittance at wavelength of 1150 nm, Polystyrene: polystyrene resin 12.0 g, melt-kneading 200° C., hot press 180° C. In kind it is physicochemical. Here is the method: A resin composition, which was a kneaded material of the specific compound or the comparative compound and a resin, was prepared, and the following kneading evaluation was performed.
The specific compounds and comparative compounds shown in Table 3 below were weighed in the contents shown in Table 3, and a sample obtained by shaking and mixing 12.0 g of the resin shown in Table 3 was prepared. A polycarbonate resin (indicated as Polycarbonate in Table 3), a polystyrene resin, and an acrylic resin were used as the resin. In Table 3, the polycarbonate resin is indicated as Polycarbonate, the polystyrene resin is indicated as Polystyrene, and the acrylic resin is indicated as Acrylic.
The obtained sample was put into a supply port of a biaxial kneader (Labo Plastomill, manufactured by Toyo Seiki Seisaku-sho, Ltd.) and subjected to melt-kneading to obtain a resin composition as a kneaded material. The obtained resin composition was pressed using a heat press machine to obtain a resin film having a thickness of 0.15 mm.
In a case where a polycarbonate resin (SD PORYCA (registered trademark) 301-10, manufactured by Sumika Polycarbonate Co., Ltd.) was used as the resin, the melt-kneading temperature was set to 260° C. and the hot press temperature was set to 230° C.
In a case where a polystyrene resin (manufactured by Sigma-Aldrich Co. LLC) was used as the resin, the melt-kneading temperature was set to 200° C. and the hot press temperature was set to 180° C.
In a case where an acrylic resin (G1000, manufactured by Kuraray Co., Ltd.) was used as the resin, the melt-kneading temperature was set to 180° C. and the hot press temperature was set to 160° C.
A transmittance of the obtained resin film at a wavelength of 1,150 nm was measured with a spectrophotometer, and the measured value was evaluated according to the following standard. In Table 3, it is described in “Evaluation of transmittance at wavelength of 1150 nm”. As the transmittance is lower, the near infrared blocking property is better.
• A: transmittance at a wavelength of 1,150 nm was less than 10%. • B: transmittance at a wavelength of 1,150 nm was 10% or more and less than 50%. • C: transmittance at a wavelength of 1,150 nm was 50% or more.

Regarding `Cc1cc(C)c(N(c2ccc([N+](=C3C=CC(=[N+](c4ccc(N(c5c(C)cc(C)cc5C)c5c(C)cc(C)cc5C)cc4)c4ccc(N(c5c(C)cc(C)cc5C)c5c(C)cc(C)cc5C)cc4)C=C3)c3ccc(N(c4c(C)cc(C)cc4C)c4c(C)cc(C)cc4C)cc3)cc2)c2c(C)cc(C)cc2C)c(C)c1.Fc1c(F)c(F)c([B-](c2c(F)c(F)c(F)c(F)c2F)(c2c(F)c(F)c(F)c(F)c2F)c2c(F)c(F)c(F)c(F)c2F)c(F)c1F.Fc1c(F)c(F)c([B-](c2c(F)c(F)c(F)c(F)c2F)(c2c(F)c(F)c(F)c(F)c2F)c2c(F)c(F)c(F)c(F)c2F)c(F)c1F` [A-44], the “Evaluation of transmittance at wavelength of 1150 nm, Acrylic” value (from here on “Evaluation of transmittance … Acrylic”) is recorded as “A (transmittance at a wavelength of 1,150 nm was less than 10%)”; the “Evaluation of transmittance at wavelength of 1150 nm, Polycarbonate” value (“Evaluation of transmittance … Polycarbonate” below) is recorded as “A (transmittance at a wavelength of 1,150 nm was less than 10%)”; the “Evaluation of transmittance at wavelength of 1150 nm, Polystyrene” value (“Evaluation of transmittance … Polystyrene” for short) is listed as “A (transmittance at a wavelength of 1,150 nm was less than 10%)”.

As for `Cc1ccc(N(c2ccc(C)cc2)c2ccc([N+](=C3C=CC(=[N+](c4ccc(N(c5ccc(C)cc5)c5ccc(C)cc5)cc4)c4ccc(N(c5ccc(C)cc5)c5ccc(C)cc5)cc4)C=C3)c3ccc(N(c4ccc(C)cc4)c4ccc(C)cc4)cc3)cc2)cc1` [A-31], the “Evaluation of transmittance … Acrylic” value is given as “A (transmittance at a wavelength of 1,150 nm was less than 10%)”; the “Evaluation of transmittance … Polycarbonate” value is on record as “A (transmittance at a wavelength of 1,150 nm was less than 10%)”; the “Evaluation of transmittance … Polystyrene” value is recorded as “A (transmittance at a wavelength of 1,150 nm was less than 10%)”.

`Cc1ccc(N(c2ccc(C)cc2)c2ccc([N+](=C3C=CC(=[N+](c4ccc(N(c5ccc(C)cc5)c5ccc(C)cc5)cc4)c4ccc(N(c5ccc(C)cc5)c5ccc(C)cc5)cc4)C=C3)c3ccc(N(c4ccc(C)cc4)c4ccc(C)cc4)cc3)cc2)cc1.c1ccc([B-](c2ccccc2)(c2ccccc2)c2ccccc2)cc1.c1ccc([B-](c2ccccc2)(c2ccccc2)c2ccccc2)cc1` [A-36]: the “Evaluation of transmittance … Acrylic” value was “A (transmittance at a wavelength of 1,150 nm was less than 10%)”; the “Evaluation of transmittance … Polycarbonate” value is reported as “A (transmittance at a wavelength of 1,150 nm was less than 10%)”; the “Evaluation of transmittance … Polystyrene” value is given as “A (transmittance at a wavelength of 1,150 nm was less than 10%)”.

As to `Cc1ccc(N(c2ccc(C)cc2)c2ccc([N+](=C3C=CC(=[N+](c4ccc(N(c5ccc(C)cc5)c5ccc(C)cc5)cc4)c4ccc(N(c5ccc(C)cc5)c5ccc(C)cc5)cc4)C=C3)c3ccc(N(c4ccc(C)cc4)c4ccc(C)cc4)cc3)cc2)cc1` [Comparative compound 2, reference compound], the “Evaluation of transmittance … Acrylic” value is given as “C (transmittance at a wavelength of 1,150 nm was 50% or more)”; the “Evaluation of transmittance … Polycarbonate” value is recorded as “C (transmittance at a wavelength of 1,150 nm was 50% or more)”; the “Evaluation of transmittance … Polystyrene” value was “C (transmittance at a wavelength of 1,150 nm was 50% or more)”.

Regarding `CCCCN(CCCC)c1ccc([N+](=C2C=CC(=[N+](c3ccc(N(CCCC)CCCC)cc3)c3ccc(N(CCCC)CCCC)cc3)C=C2)c2ccc(N(CCCC)CCCC)cc2)cc1.[F][Sb-]([F])([F])([F])([F])[F].[F][Sb-]([F])([F])([F])([F])[F]` [Comparative compound 4, reference compound], the “Evaluation of transmittance … Acrylic” value is “C (transmittance at a wavelength of 1,150 nm was 50% or more)”; the “Evaluation of transmittance … Polycarbonate” value is given as “C (transmittance at a wavelength of 1,150 nm was 50% or more)”; the “Evaluation of transmittance … Polystyrene” value is reported as “C (transmittance at a wavelength of 1,150 nm was 50% or more)”.

Take `CCCCN(CCCC)c1ccc(N(c2ccc(N(CCCC)CCCC)cc2)c2ccc([N+](=C3C=CC(=[N+](c4ccc(N(c5ccc(N(CCCC)CCCC)cc5)c5ccc(N(CCCC)CCCC)cc5)cc4)c4ccc(N(c5ccc(N(CCCC)CCCC)cc5)c5ccc(N(CCCC)CCCC)cc5)cc4)C=C3)c3ccc(N(c4ccc(N(CCCC)CCCC)cc4)c4ccc(N(CCCC)CCCC)cc4)cc3)cc2)cc1.[F][Sb-]([F])([F])([F])([F])[F].[F][Sb-]([F])([F])([F])([F])[F]` [Comparative compound 3, reference compound]: the “Evaluation of transmittance … Acrylic” value is on record as “C (transmittance at a wavelength of 1,150 nm was 50% or more)”; the “Evaluation of transmittance … Polycarbonate” value is “C (transmittance at a wavelength of 1,150 nm was 50% or more)”; the “Evaluation of transmittance … Polystyrene” value is reported as “C (transmittance at a wavelength of 1,150 nm was 50% or more)”.

In the case of `Cc1ccc(N(c2ccc(C)cc2)c2ccc([N+](=C3C=CC(=[N+](c4ccc(N(c5ccc(C)cc5)c5ccc(C)cc5)cc4)c4ccc(N(c5ccc(C)cc5)c5ccc(C)cc5)cc4)C=C3)c3ccc(N(c4ccc(C)cc4)c4ccc(C)cc4)cc3)cc2)cc1` [A-35], the “Evaluation of transmittance … Acrylic” value is “A (transmittance at a wavelength of 1,150 nm was less than 10%)”; the “Evaluation of transmittance … Polycarbonate” value is “A (transmittance at a wavelength of 1,150 nm was less than 10%)”; the “Evaluation of transmittance … Polystyrene” value is listed as “A (transmittance at a wavelength of 1,150 nm was less than 10%)”.

Regarding `Cc1ccc(N(c2ccc(C)cc2)c2ccc([N+](=C3C=CC(=[N+](c4ccc(N(c5ccc(C)cc5)c5ccc(C)cc5)cc4)c4ccc(N(c5ccc(C)cc5)c5ccc(C)cc5)cc4)C=C3)c3ccc(N(c4ccc(C)cc4)c4ccc(C)cc4)cc3)cc2)cc1.O=S(=O)([C-](S(=O)(=O)C(F)(F)F)S(=O)(=O)C(F)(F)F)C(F)(F)F.O=S(=O)([C-](S(=O)(=O)C(F)(F)F)S(=O)(=O)C(F)(F)F)C(F)(F)F` [A-34], the “Evaluation of transmittance … Acrylic” value is “A (transmittance at a wavelength of 1,150 nm was less than 10%)”; the “Evaluation of transmittance … Polycarbonate” value is on record as “A (transmittance at a wavelength of 1,150 nm was less than 10%)”; the “Evaluation of transmittance … Polystyrene” value was “A (transmittance at a wavelength of 1,150 nm was less than 10%)”.

With `Cc1ccc(N(c2ccc(C)cc2)c2ccc([N+](=C3C=CC(=[N+](c4ccc(N(c5ccc(C)cc5)c5ccc(C)cc5)cc4)c4ccc(N(c5ccc(C)cc5)c5ccc(C)cc5)cc4)C=C3)c3ccc(N(c4ccc(C)cc4)c4ccc(C)cc4)cc3)cc2)cc1` [A-28], the “Evaluation of transmittance … Acrylic” value is on record as “A (transmittance at a wavelength of 1,150 nm was less than 10%)”; the “Evaluation of transmittance … Polycarbonate” value was “B (transmittance at a wavelength of 1,150 nm was 10% or more and less than 50%)”; the “Evaluation of transmittance … Polystyrene” value was “A (transmittance at a wavelength of 1,150 nm was less than 10%)”.
